Reference: the supplement of paper PMC3334620
Whole data set: some 33,000 sequences, median “E-score (-0.5 to 0.5)” near -8e-05, cut for the highest 2% near 0.23. Some of the results follow.

molecular target: T1, Nrg2 (UniProt P38082); experiment: PBM E-score (8-mer binding enrichment) (E-score (-0.5 to 0.5)); higher = stronger / more preferred TF binding; conditions: protein concentration: 100 nM; construct: GST-full length
T1 sequence: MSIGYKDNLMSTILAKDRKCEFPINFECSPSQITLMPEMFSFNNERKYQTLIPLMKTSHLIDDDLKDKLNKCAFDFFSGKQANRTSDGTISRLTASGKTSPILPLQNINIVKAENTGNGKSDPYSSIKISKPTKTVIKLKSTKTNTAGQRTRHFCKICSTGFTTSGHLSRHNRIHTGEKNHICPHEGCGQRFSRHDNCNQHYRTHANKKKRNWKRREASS
Outline: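 The E-score, a modified Wilcoxon-Mann-Whitney statistic, was computed by the Universal PBM Analysis Suite for every ungapped eight-base word pooled with its reverse complement. Scans behind it were normalised with masliner after bound GST-tagged yeast transcription factors were detected with fluorescent anti-GST. The proteins, at about 100-200 nM, had been applied to universal all-10-mer Agilent arrays made double-stranded by primer extension.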

Row | Sequence | PBM E-score
1 | AAAGTAAA | 0.0731
2 | ATTGCATC | 0.032
3 | AGAAAGTG | 0.0147
4 | ATGAGTAA | 0.0697
5 | CTTTTCCC | -0.0167
6 | ATCACAAC | 0.017
7 | GTACATAC | 0.0406
8 | AGAGCCTA | -0.301
9 | AGCGCCGA | -0.137
10 | TCTGCAAA | -0.0511
11 | AACACGTT | -0.00172
12 | GCAATAGA | -0.0937
13 | ATGCTATA | -0.057
14 | AAGAAATA | 0.0598
15 | CTCCTTTA | -0.229
16 | GCTCCACA | -0.234
17 | GAAAAAGC | -0.0562
18 | CAACTGAC | -0.115
19 | ACGAAAAG | 0.0254
20 | ACAGTTAG | 0.0903
21 | AGAGTGTG | -0.0801
22 | GACTCGTA | -0.00023
23 | ACACATAG | -0.0551
24 | CAATCCAG | 0.0569
25 | CTTTACGC | -0.0944

Row | Sequence | PBM E-score
26 | CACTATGG | -0.147
27 | CAAAGCGG | -0.0751
28 | AGCGTCAT | -0.0515
29 | CGCAACTA | 0.244
30 | CCGTTCCA | 0.0247
31 | TCTGACAA | -0.0261
32 | AGCTATTA | 0.0847
33 | GAAGGCGC | -0.135
34 | ATAATTCA | 0.125
35 | GAGCCTAA | -0.0883
36 | TGCCGTAA | -0.0345
37 | CAAGAACC | 0.172
38 | CGTTAACG | 0.0171
39 | AAAGACCG | -0.166
40 | CCGACCTA | 0.0717
41 | GAAACTGA | -0.118
42 | GCACTCCC | -0.0513
43 | ATCGAGAT | 0.138
44 | TCGGTCAA | 0.0158
45 | CGTCGCTA | 0.149
46 | CGCCTTGA | -0.0683
47 | CTCCCCGA | -0.197
48 | AAACTTCA | 0.0984
49 | ACATAAGT | 0.118
50 | GATTAAGC | 0.0306

Row | Sequence | PBM E-score
51 | CAAATCTG | -0.0086
52 | AATTTAGC | 0.14
53 | ACGGCGAT | 0.0361
54 | AAAGTTCT | -0.0562
55 | ACGCGACG | 0.061
56 | CACTACAA | 0.129
57 | CGACCTAA | 0.167
58 | CGAGTCTC | -0.294
59 | GTTTATAA | 0.109
60 | CATAGTCA | 0.0096
61 | CCTGCAGG | 0.174
62 | CAAGATTG | -0.0678
63 | ACCCGTGC | 0.0186
64 | CACCCCTC | -0.0399
65 | ATAACTAC | 0.119
66 | AGAAGAGG | -0.209
67 | ATCGGTTA | 0.141
68 | GCCACCGC | -0.13
69 | GAAGAAAA | -0.113
70 | CTTTATTC | 0.0506
71 | CCCTGGCC | 0.175
72 | CAGAACGA | -0.00647
73 | CATAGGAC | -0.151
74 | AGATCGCC | -0.0109
75 | ATCCTAGC | 0.00403

Row | Sequence | PBM E-score
76 | AGAAACCA | 0.0851
77 | GGGGAAAA | -0.00355
78 | CGGCTGCA | -0.137
79 | GTTCTACA | -0.131
80 | ACCTAAAC | -0.0716
81 | CCCATACA | -0.0125
82 | ATGCCTGG | -0.0955
83 | ACTTGCAT | 0.131
84 | GCTACGTA | -0.0345
85 | ACAGCGGG | -0.0296
86 | ATTGCAGC | 0.0702
87 | ACGTGAAC | -0.22
88 | ATTGTGGA | 0.0344
89 | CGTGGAAC | 0.0155
90 | CCATTCAG | -0.00296
91 | CAGATGCC | -0.203
92 | CGCGGGCC | 0.176
93 | GACGGGGA | -0.165
94 | ATGTAGTC | -0.0277
95 | GGTAACCA | -0.23
96 | CGGAGTAC | -0.122
97 | CACTACAG | 0.00921
98 | TGATCCCA | 0.0527
99 | GCTTTGAA | 0.0162
100 | AAAAGCCA | 0.219

Row | Sequence | PBM E-score
101 | CCCGTGAG | -0.00464
102 | TAGTACAA | -0.0144
103 | CCCGCAGG | -0.0245
104 | CTGATCAC | -0.0694
105 | AAGAACGA | 0.109
106 | CACTTCTA | -0.0512
107 | ACGTCAGG | -0.167
108 | TCGGTACA | -0.141
109 | CGCACTTA | 0.065
110 | AAAGGCTG | -0.244
111 | CATCGGGG | -0.115
112 | AGGTCCTA | -0.16
113 | GCTTGGTA | 0.0492
114 | CATGGTAC | 0.00349
115 | GGATGGGA | -0.135
116 | AAGGCACA | -0.0706
117 | ACGTCAAG | -0.194
118 | GGTCATAA | 0.0215
119 | GTGCTCAA | 0.0342
120 | CATCGAGG | 0.0813
121 | AGTGCCCC | -0.13
122 | CCTCCCCC | -0.401
123 | CGCCATTC | 0.0972
124 | ATCATGAT | 0.0407
125 | ACGTGAAA | 0.139

Row | Sequence | PBM E-score
126 | TAGGGTAA | 0.129
127 | ACCCACTA | 0.0322
128 | GGCGCGAC | 0.149
129 | AGAAAGTA | -0.0198
130 | AAATGCCA | 0.0141
131 | CCGTGCAC | -0.046
132 | AAGCGCAG | 0.0692
133 | ACGTGTAA | -0.0818
134 | AGGCGGGG | 0.0214
135 | CATTACCA | 0.0358
136 | ATCCTCCC | -0.213
137 | CAAGGACC | 0.109
138 | ACACTGTA | 0.0548
139 | CCTTACTA | -0.151
140 | TCCCAGAA | -0.142
141 | TCTCTCCA | -0.0135
142 | ATATTCGA | -0.0629
143 | ATTATTTA | 0.173
144 | AGCGTACC | -0.188
145 | TCGCCTCA | 0.0396
146 | GTATGCGA | 0.136
147 | CCCGAATC | -0.0566
148 | GATGTTAA | 0.00349
149 | CTCCGTTA | -0.039
150 | AATCAATC | 0.205

Quoted from the listing.
Value of ACGTGTAA under PBM E-score: -0.0818
Value of CCTTACTA under PBM E-score: -0.151
Value of ATCCTCCC under PBM E-score: -0.213
Value of AGCGTACC under PBM E-score: -0.188

More records

Row | Sequence | PBM E-score
151 | ACAGATAA | 0.0378
152 | ACCTATCC | -0.00287
153 | AATTAATG | 0.182
154 | CATGACTA | -0.0763
155 | CCTGTTCA | 0.103
156 | AAATTTTC | -0.0998
157 | CACTTAGC | -0.0931
158 | ACTTGTGG | -0.0601
159 | CAAGGAGC | -0.166
160 | CCCACAAG | -0.0136
161 | AAGGATCG | -0.055
162 | CGCGGAGA | 0.177
163 | CTGCTACA | -0.00452
164 | ATTCCTGA | -0.0367
165 | AAATGACA | 0.133
166 | TCGACTAA | 0.0293
167 | CCGTGTCA | -0.192
168 | CCCTGGGC | 0.12
169 | AGGTACTA | 0.0762
170 | CAAACTTC | 0.137
171 | TCGAGACA | 0.171
172 | CCCCCCCC | -0.458
